# Percent effect of library compounds

Results are given as percent effect.
The controls that fix the scale are not given in the record; negative values are as filed.
Compounds were drawn at random from those tested, without regard to their results.
Two or more numbers in one place are separate tests of the same structure; such repeats can differ widely.
A dash means the value is not listed here; it may have been measured.

A: 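Assay of Toxoplasma gondii numbers, read through their beta-galactosidase reporter with a colour substrate. Compounds at 10 µM. The record gives no direction; the compounds picked for IC50 retests had high values, so higher reads as fewer parasites. Of about 67,000 compounds tested this way, about 260 (0.38%) reached 50% or more in at least one test.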
B: 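Cell assay of Leishmania donovani living inside macrophages; the read-out is not stated. Concentration: 30 µM. The record gives no direction; compounds that gave an IC50 in retests scored well above the rest, so higher reads as stronger inhibition. Of about 69,000 compounds tested this way, about 1,000 (1.5%) reached 50% or more in at least one test.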

SMILES	A	B
CC(C)c1cc2c(O)nc(CSCC(=O)NCc3ccncc3)nc2s1	0.7653%	14.11%
CCc1cc(N2CCC(NC3CCOCC3)CC2)nc(N(C)C)n1	-3.04%	21.92%
CC(NC1(CNC(=O)CC(C)(C)C)CCOCC1)c1ccccc1 (centres unmarked)	2.711%	36.24%
O=C(NCC1CCCO1)N1CCN(Cc2ccc3c(c2)CCO3)CC1 (centres unmarked)	10.66%	31.04%
c1ccc(Cc2noc(CNC3CCc4ncnn4C3)n2)cc1 (centres unmarked)	20.25%	26.48%
COc1cc(NC(=O)N2CCCC2c2ccco2)cc(OC)c1 (centres unmarked)	-28.17%	10.02%
Cc1nc(-c2ccsc2)ccc1C(=O)NCC(C)N1CCOCC1 (centres unmarked)	-5.988%	15.28%
O=C(CCCc1nnc(-c2ccccc2)o1)N1CCN(CCO)CC1	-	7.019%
O=C(c1cc(=O)[nH]c(=O)[nH]1)N1CCCC(CO)(CC2CC2)C1 (centres unmarked)	-2.219%	-30.49%
CCC(CN1CCCC1)NC(=O)Cc1c(C)[nH]c2cc(C)cc(C)c12 (centres unmarked)	-10.52%	24.09%
Clc1cncc(NCc2cccc(OCCN3CCOCC3)c2)n1	-4.689%	14.13%
COc1cccc(Cl)c1C(C(=O)O)N1CCC(Cn2cccn2)CC1 (centres unmarked)	29.72%	4.964%
CCc1cc(C(=O)N2CCC3(CCCN(CC4CC4)C3=O)C2)cs1 (centres unmarked)	-11.1%	12.28%
Cc1nc(C2(O)CCCNCC2)sc1CCOc1ccc(Cl)cc1.Cl (centres unmarked)	66.18%	92.94%
Cc1nc(CN2CCCC(N(C)c3ccc(C#N)cn3)C2)no1 (centres unmarked)	-12.51%	8.709%
CC(C)(C)n1cc(CNC2CCN(C(=O)c3ccco3)CC2)cn1	-1.51%	2.129%
CN(Cc1ccccc1NCc1cscn1)C(=O)c1cccs1	4.261%	-29.88%
CC(C)NC(=O)C1CCN(c2snc3ccccc23)CC1	11.22%	24.03%
Cc1nnc2ccc(N3CCN(Cc4nccn4C)CC3)nn12	-1.264%	-0.5767%
Cc1cc(C)nc(CNC(=O)C(c2cccnc2)N2CCOCC2)n1 (centres unmarked)	8.248%	3.001%
O=C1CC(c2cccnc2)c2c(c(C(=O)O)cn2-c2ccc(Cl)cc2)N1 (centres unmarked)	14.02%	19.15%
CO[C@@H]1CCC[C@@H](NC(=O)CCCn2cncn2)[C@H]1O	12.7%	29.71%
O=C(NC1CC1)C1CCCN1c1ncnc2ccsc12 (centres unmarked)	2.773%	10.68%
[H][C@]12CC[C@]([H])(CN(C(=O)c3ccc(S(N)(=O)=O)cc3)C1)N(CC=C(C)C)C2	-14.6%	-11.13%
COC(=O)c1ccc(NC(=O)CNCc2ccco2)cc1	6.867%	-1.099%
[H][C@@]12CCN(C[C@@H]1CC)[C@@H](CNC(=O)Nc1ccccc1)C2	-5.071%	9.529%
CC(C)C(=O)N(C)Cc1nc(N2CCCC2)ncc1-c1ccncc1.Cl	14.3%	7.466%
Cc1cc(-c2cccc(C(=O)O)c2)nc(C2CCN(C(C)C)CC2)n1	7.457%	14.25% and 17.05%
O=C(Nc1ccccc1)c1cc2n(n1)CCCN(C(=O)N1CCCC1)C2	16.41%	0.1319%
N#Cc1cccc(OCCN2CCC(C(=O)N3CCOCC3)CC2)c1	-6.351%	9.602%
COc1ccc(C2CC(=O)NCc3nc4ccccn4c32)cn1 (centres unmarked)	-0.8246%	-7.904%
CCCC(=O)NC(Cc1ccc(C)cc1)c1ccccn1 (centres unmarked)	3.445%	27.48%
CC(=O)N[C@@H]1CN(C(=O)c2ccoc2)C[C@H]1c1ccc(C)cc1	8.107%	32.1%
Cc1nc(CN2CC(Cc3ccccc3)CC2=O)no1 (centres unmarked)	-15.7%	40%
[H][C@]12CC[C@]([H])(CN(C3Cc4ccccc4C3)C1)N(C(=O)OCCOC)C2	-1.913%	6.909%
CC(Oc1ccc(F)cc1F)C(=O)N1CCC2(CCCO2)CC1 (centres unmarked)	3.137%	11.63%
Cc1c(Cn2ccnc2-c2cc(CN(C)C)cs2)cnn1C	6.153%	32.09%
CC(C)c1cc(N2CCC[C@H](N)C2)n2nccc2n1	-0.8246%	23.4%
[H][C@]12CCN(C(=O)c3ccc(OCCC)c(Cl)c3)C[C@]([H])(CC1)N2	1.256%	10.97%
CCOC(=O)CSc1nnc([C@@H](N)C(C)CC)o1.Cl (some centres unmarked)	-40.45%	5.774%
O=S(=O)(c1cccc(Cl)c1)N1CCCC(Cn2cncn2)C1 (centres unmarked)	-13.25%	12.93%
O=C(CCc1cscn1)N1CCCC(n2cncn2)C1 (centres unmarked)	-10.17%	2.896%
CCOCC(O)c1nc2c([nH]1)CC(C)(C)CNC2=O (centres unmarked)	-	-23.12%
CCC(O)CN(CC(=O)Nc1cc(C)no1)c1ccccc1 (centres unmarked)	-17.27%	12.5%
Cc1nc(O)cc(C2(C)CCCNC2)n1.Cl (centres unmarked)	6.72%	17.86%
CNCc1cnc(Nc2ccccc2)nc1	28.87%	8.854%
O=C(CCNC(=O)NC1CCN(C2CC2)CC1)NCc1ccccc1	4.425%	3.498%
Cc1nn(C)c(C)c1C1CCCN1CC(=O)Nc1cc(C(C)C)no1 (centres unmarked)	2.01%	24.9%
CCc1ccc(CNC(=O)N2CCN(Cc3cc(C)no3)CC2)s1	-1.695%	9.352%
COc1ccccc1C1(NCc2c(C)nc3c(C)cccn23)CCCC1.Cl	2.45%	-44.76%
CC1COCCN1C(=O)Cc1cc(Cl)c2c(c1)OCCO2 (centres unmarked)	9.955%	6.972%
Cc1cc(N2CCC(N(C)C(=O)c3ccc(C#N)cc3)CC2)nc(C)n1	-0.5975%	14.71%
[H][C@@]12CNCC[C@]1(O)CCN(c1nccc3ccccc13)C2	14.35%	14.44%
O=C(C1CN(CC2CCOCC2)CC12CCOCC2)N1CCCC1.O=C(O)C(F)(F)F (centres unmarked)	-5.021%	-0.9366%
CNCc1cn(C2CCN(CCC(C)c3ccccc3)CC2)nn1 (centres unmarked)	33.32%	69.72%
CC(C)OCCCNC(=O)CN(c1ccc(F)c(F)c1)S(C)(=O)=O	3.582%	25.94%
Cc1ccc(NC(=O)C2CCCN2C(=O)C2CC2)nc1 (centres unmarked)	8.039%	18.83%
CCc1nnc2n1CCN(Cc1ncc(-c3ccccc3)o1)C2	5.514%	4.99%
[H][C@@]12OCCN(C(=O)c3ccc(C)nc3)[C@@]1([H])CC[C@@H]2OC	8.056%	3.341%
Cc1nc(CN2CCCC(NCc3sccc3C)C2)no1 (centres unmarked)	-10.94%	9.742%
O=c1c(S(=O)(=O)N2CCCCC2)cccn1Cc1cccnc1	9.225%	15.78%
CCc1n[nH]c(C2CN(C(=O)CCn3ccccc3=O)CCO2)n1 (centres unmarked)	20.5%	16.08%
O=C(O)c1c[nH]c2cc(NS(=O)(=O)c3cccc(F)c3F)ccc12	4.921%	18.64%
CNS(=O)(=O)CCCN1CCCC1c1cc(C)on1 (centres unmarked)	-	3.461%
OC(CN1CCN(CC(F)F)CC1)c1ccc(Br)cc1 (centres unmarked)	-3.431%	30.57%
O=C(CNC(=O)C1CCCC1)NCC(O)c1ccc2ccccc2c1 (centres unmarked)	-10.98%	2.712%
O=C(c1cnn[nH]1)N1CCCC1c1nc2cc(F)ccc2[nH]1 (centres unmarked)	-6.865%	-5.367%
O=C(O)C(F)(F)F.O=C(O)C(F)(F)F.[H][C@@]12C[C@@H](Oc3ccc(C)cc3)CN1CCN(C(=O)Cc1ccccn1)C2	-19.63%	11.94%
O=C(COCCOc1ccccc1)N1CCCC(n2ccnc2)C1 (centres unmarked)	7.446%	31.85%
CC(C)c1cc(C(=O)N2CCc3nc(C4CCCN4)ncc3C2)cs1.Cl (centres unmarked)	-24.25%	-1.346% and 6.967%
CCn1nc(C)cc1S(=O)(=O)N1CCC2(CC(=O)NC2=O)C1 (centres unmarked)	-	14.24%
Cc1nc(O)cc(CCNC(=O)c2ccc(CN3CCCCC3)cc2)n1	-2.071%	-4.068%
CNC(=O)N1CCc2nc(C(=O)NCc3cccc(OC)c3)sc2CC1	-2.926%	36.14%
COCC(=O)N1CCCn2c(CN3CCCC3=O)nnc2C1	-4.818%	51.47%
O=c1n(CC2COCCO2)nc(CC2CCNCC2)n1-c1ccccc1 (centres unmarked)	3.118%	0.3303%
O=C(CNC(=O)Nc1cccc(-c2nccs2)c1)NCCO	15.36%	20.86%
Cc1ccoc1C(=O)NC1CCN(Cc2cccc3c2OCCO3)CC1	4.106%	20.74%
Cc1cc(CNC(=O)c2cn(CCC3CCCCN3)nn2)on1 (centres unmarked)	-2.296%	13.87%
COc1c(C)cnc(CN2CCn3c(nnc3C(C)C)C2)c1C	-38.68%	24.31%
c1cc(-c2cscn2)cc(N2CCC(NCCc3cccs3)CC2)c1	11.42%	68.46%
CSCC(=O)N[C@H]1CC[C@H](Nc2nccc(-c3ccncc3)n2)C1	-4.178%	-14.3% and 2.984%

Repeated from the top, 10 entries:

SMILES	A	B
CC(C)c1cc2c(O)nc(CSCC(=O)NCc3ccncc3)nc2s1	0.7653%	14.11%
CCc1cc(N2CCC(NC3CCOCC3)CC2)nc(N(C)C)n1	-3.04%	21.92%
CC(NC1(CNC(=O)CC(C)(C)C)CCOCC1)c1ccccc1 (centres unmarked)	2.711%	36.24%
O=C(NCC1CCCO1)N1CCN(Cc2ccc3c(c2)CCO3)CC1 (centres unmarked)	10.66%	31.04%
c1ccc(Cc2noc(CNC3CCc4ncnn4C3)n2)cc1 (centres unmarked)	20.25%	26.48%
COc1cc(NC(=O)N2CCCC2c2ccco2)cc(OC)c1 (centres unmarked)	-28.17%	10.02%
Cc1nc(-c2ccsc2)ccc1C(=O)NCC(C)N1CCOCC1 (centres unmarked)	-5.988%	15.28%
O=C(CCCc1nnc(-c2ccccc2)o1)N1CCN(CCO)CC1	-	7.019%
O=C(c1cc(=O)[nH]c(=O)[nH]1)N1CCCC(CO)(CC2CC2)C1 (centres unmarked)	-2.219%	-30.49%
CCC(CN1CCCC1)NC(=O)Cc1c(C)[nH]c2cc(C)cc(C)c12 (centres unmarked)	-10.52%	24.09%

The values are deposited in ChEMBL (CHEMBL3988442, “University of Dundee, Small-Polar-MMV Screening Library” (2021)).